{"source": "ChEMBL document CHEMBL4689842", "about": "“EUbOPEN Chemogenomics Library wave 1” (2021)", "tested_on": "HEK-293T", "assay": "Multiplex assay against HEK293T", "format": "toxicity, cell-based", "details": "human", "procedure,_shortened": "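Compound was added to live cells that had been stained at seeding with Hoechst33342, BioTracker Green Microtubule Cytoskeleton Dye, MitoTracker Red and Annexin V Alexa Fluor 680, and imaging followed on a CQ1 microscope at 37°C and 5% CO2. CellPathfinder machine-learning gating divided cells into Hoechst high-intensity objects or normal cells, normal cells into healthy, pyknosed or fragmented nuclei, and pyknosed cells into mitotic or apoptotic. Tubulin, mitochondrial-mass and membrane-permeability phenotypes are per cents of healthy-nucleus cells.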", "key": {"[1]": {"details": "12 h, 1 µM, compound concentration 1 uM, replicate 2"}}, "data": [{"smiles": "NC(=O)c1ccc2nc(-c3ccc(C4(N)CCC4)cc3)c(-c3ccccc3)n2n1", "note": "[BAY-1125976]", "values": [{"measurement": "Population Membrane Permeable-Phenotype (%)", "setting": "0 h, 1 µM, compound concentration 1 uM, replicate 1", "value": 2, "unit": "%"}, {"measurement": "Population Membrane Permeable-Phenotype (%)", "setting": "0 h, 1 µM, compound concentration 1 uM, replicate 2", "value": 0, "unit": "%"}, {"measurement": "Population Membrane Permeable-Phenotype (%)", "setting": "0 h, 10 µM, compound concentration 10 uM, replicate 1", "value": 3, "unit": "%"}, {"measurement": "Population Membrane Permeable-Phenotype (%)", "setting": "0 h, 10 µM, compound concentration 10 uM, replicate 2", "value": 0, "unit": "%"}, {"measurement": "Population Membrane Permeable-Phenotype (%)", "setting": "12 h, 1 µM, compound concentration 1 uM, replicate 1", "value": 10, "unit": "%"}, {"measurement": "Population Membrane Permeable-Phenotype (%)", "setting": "[1]", "value": 7, "unit": "%"}, {"measurement": "Population Pyknosed Nuclei (%)", "setting": "[1]", "value": 7, "unit": "%"}, {"measurement": "Population Membrane Permeable-Phenotype (%)", "setting": "12 h, 10 µM, compound concentration 10 uM, replicate 1", "value": 4, "unit": "%"}, {"measurement": "Population Membrane Permeable-Phenotype (%)", "setting": "12 h, 10 µM, compound concentration 10 uM, replicate 2", "value": 1, "unit": "%"}, {"measurement": "Population Membrane Permeable-Phenotype (%)", "setting": "24 h, 1 µM, compound concentration 1 uM, replicate 1", "value": 9, "unit": "%"}, {"measurement": "Population Membrane Permeable-Phenotype (%)", "setting": "24 h, 1 µM, compound concentration 1 uM, replicate 2", "value": 10, "unit": "%"}, {"measurement": "Population Membrane Permeable-Phenotype (%)", "setting": "24 h, 10 µM, compound concentration 10 uM, replicate 1", "value": 10, "unit": "%"}, {"measurement": "Population Membrane Permeable-Phenotype (%)", "setting": "24 h, 10 µM, compound concentration 10 uM, replicate 2", "value": 5, "unit": "%"}]}]}
